{
  "source": "PubChem BioAssay AID540256",
  "about": "(National Center for Advancing Translational Sciences (NCATS), 2011)",
  "note": "Among all 300,000 compounds or so, about 3,700 (1.2%) were called active. The shares of active, inactive and inconclusive entries below differ from those in the screen. Calls follow the shape of the full dose curve; tested in HEK293 cells. A potency beside an inconclusive call is a rough fit, not a confirmed value. Potency is read from the fitted curve at half-maximal effect.",
  "data": [
    {"assay": "qHTS for Inhibitors of binding or entry into cells for Lassa Virus; also: nearly all actives have a fitted effect of over 50% in size", "details": "Lassa virus pseudotype entry inhibition, cell reporter; series mostly up to 37.9 µM", "values": [
      {"smiles": "CC1CCN(C(=O)Cn2cnc3c2c(=O)n(C)c(=O)n3C)c2ccccc2S1", "note": "(stereo not given)", "Potency": "inconclusive: 4.47 µM [inhibitor, partial curve]"},
      {"smiles": "COc1cc(C2c3c(-c4ccccc4O)n[nH]c3C(=O)N2Cc2ccncc2)ccc1O", "note": "(stereo not given)", "Potency": "inconclusive: 6.31 µM [inhibitor, partial curve, poor fit]"},
      {"smiles": "Cc1cccc(-c2nnc3n2N=C(c2ccccc2Br)CS3)c1", "Potency": "inconclusive: 35.5 µM [inhibitor, single point]"},
      {"smiles": "CCc1ccc2c(c1)[C@]1(C(=O)N2)[C@@H]2C(=O)N(Cc3ccccc3)C(=O)[C@@H]2[C@@H]2CCCN21", "Potency": "inconclusive: 23.1 µM [inhibitor, single point]"},
      {"smiles": "Cc1ccc(Cn2c(SCC(=O)NCC3CCCO3)nc3ccsc3c2=O)cc1", "note": "(stereo not given)", "Potency": "inactive"},
      {"smiles": "CCn1c(SCC(=O)N(C)C2CCS(=O)(=O)C2)nnc1-c1ccccc1", "note": "(stereo not given)", "Potency": "inactive"},
      {"smiles": "COc1cccc(/C=N/NC(=O)c2ccccc2N(Cc2ccccc2)S(=O)(=O)c2ccccc2)c1OC", "Potency": "inconclusive: 17.8 µM [inhibitor, partial curve, poor fit]"},
      {"smiles": "COc1ccc(Nc2cc(C)nc(-n3nc(C)cc3C)n2)cc1Cl", "Potency": "inconclusive: 10 µM [inhibitor, partial curve, poor fit]"},
      {"smiles": "COCCn1c(SCC(=O)Nc2ccc3c(c2)OCCO3)nnc1-c1c[nH]c2ccccc12", "Potency": "inconclusive: 8.2 µM [inhibitor, partial curve]"},
      {"smiles": "CN(C1CCCCC1)S(=O)(=O)c1ccc(S(=O)(=O)N2CCN(C(=O)c3ccccc3F)CC2)cc1", "Potency": "inconclusive: 20.6 µM [inhibitor, partial curve]"},
      {"smiles": "CCCC(=O)Nc1nc2ccc(OCC)cc2s1", "Potency": "inconclusive: 23.1 µM [inhibitor, single point]"},
      {"smiles": "COc1ccc(CCNC(=O)CCc2c(C)nc3c(c(C)nn3-c3ccc(C)cc3)c2C)c(OC)c1", "Potency": "inconclusive: 3.16 µM [inhibitor, single point]"},
      {"smiles": "COc1ccc(C(=O)N/C(=C\\c2cc(OC)c(OC)cc2[N+](=O)[O-])C(=O)NCCO)cc1", "Potency": "inactive"},
      {"smiles": "CSc1ccc(NC(=O)NCc2cccnc2)cc1", "Potency": "inconclusive: 31.6 µM [activator, single point]"},
      {"smiles": "O=C(Nc1nnc(SCCN2CCOCC2)s1)C1CC(=O)N(c2ccccc2)C1", "note": "(stereo not given)", "Potency": "inactive"},
      {"smiles": "CCCC(=O)Nc1ccc(C#Cc2ccccc2)cc1", "Potency": "inconclusive: 29.1 µM [inhibitor, single point]"},
      {"smiles": "Cc1cc(C)cc(NC(=S)NC2CC3CCCC(C2)N3C2CC2)c1", "note": "(stereo not given)", "Potency": "inconclusive: 18.3 µM [inhibitor, partial curve, poor fit]"},
      {"smiles": "COc1ccc(S(=O)(=O)N2CCOC2CNC(=O)C(=O)NCCc2ccc(OC)c(OC)c2)cc1C", "note": "(stereo not given)", "Potency": "inconclusive: 35.5 µM [inhibitor, partial curve, poor fit]"},
      {"smiles": "CCOC(=O)c1cc(-c2ccc(C)cc2)nn1Cc1ccccc1", "Potency": "inconclusive: 22.4 µM [inhibitor, single point]"},
      {"smiles": "COc1ccc(NS(=O)(=O)c2ccc(NC(=O)N3CCCC3)cc2)cc1", "Potency": "inconclusive: 3.55 µM [activator, single point]"},
      {"smiles": "O=[N+]([O-])c1ccc(N2CCN(Cc3ccccc3)CC2)s1", "Potency": "inactive"},
      {"smiles": "COc1ccc(C(=O)Nc2cccc(/C(C)=N/NC(=O)c3ccc([N+](=O)[O-])c(C)c3)c2)cc1OC", "Potency": "inconclusive: 12.6 µM [inhibitor, single point]"},
      {"smiles": "Cc1ccc(C2=Nc3ccccc3NC(c3ccncc3)=N2)cc1", "Potency": "inactive"},
      {"smiles": "COc1ccc(C(=O)Nc2ccc(-n3nncc3-c3ccc(OC)c(OC)c3)cc2)cc1", "Potency": "inconclusive: 15.8 µM [inhibitor, single point]"},
      {"smiles": "COc1c(C)oc2cc(O)ccc2c1=O", "Potency": "inactive"},
      {"smiles": "C=CCNC(=O)c1ccc(Cl)cc1Cl", "Potency": "inactive"},
      {"smiles": "COc1ccccc1NC(=O)c1ccc2c(=O)n3c(nc2c1)CCC3", "Potency": "inconclusive: 1.26 µM [activator, single point]"},
      {"smiles": "COc1ccc(NC(=O)CNC(=O)c2ccco2)cc1", "Potency": "inconclusive: 17.8 µM [activator, single point]"},
      {"smiles": "CN(Cc1ccccn1)C(=O)CC1C(=O)NCCN1Cc1cccc(Oc2ccccc2)c1", "note": "(stereo not given)", "Potency": "inconclusive: 5.62 µM [inhibitor, single point]"},
      {"smiles": "CCOc1cc(CNn2cnnc2)cc(Br)c1OCC(=O)NC1CCCCC1", "Potency": "inactive"},
      {"smiles": "Cc1ccsc1C(=O)OCC(=O)NCCC1=CCCCC1", "Potency": "inactive"},
      {"smiles": "CCc1cccc2cc3c(N)c(C(=O)Nc4ccc(S(=O)(=O)N5CCCC5)cc4)sc3nc12", "Potency": "inconclusive: 5.62 µM [inhibitor, single point]"},
      {"smiles": "CCc1ccc(NC(=O)c2cc3c(=O)n(Cc4cccs4)ccc3nc2C)cc1", "Potency": "inconclusive: 0.631 µM [inhibitor, full curve, poor fit]"},
      {"smiles": "COc1ccc(Cl)cc1NC(=O)CN(c1cc(C)cc(C)c1)S(=O)(=O)c1c(C)n[nH]c1C", "Potency": "inconclusive: 35.5 µM [inhibitor, single point]"},
      {"smiles": "O=C(CCn1c(=S)oc2ccccc21)N1CCCCC1", "Potency": "inactive"},
      {"smiles": "COc1ccc(C(=O)COC(=O)c2ccc(NC(=O)c3ccccc3)cc2)cc1", "Potency": "inactive"},
      {"smiles": "O=C(Cc1ccccc1)N1CCCC(c2nc(-c3ccc(S(=O)(=O)N4CCCC4)cc3)no2)C1", "note": "(stereo not given)", "Potency": "inconclusive: 18.3 µM [inhibitor, partial curve, poor fit]"},
      {"smiles": "Cc1ccc(S(=O)(=O)N2CCC(C(=O)Nc3ccccc3N3CCCC3)CC2)cc1C", "Potency": "inconclusive: 1 µM [activator, single point]"},
      {"smiles": "COc1ccc(CC(NC(C)=O)C(=O)NC2CCN(c3nc(C)cc(C)c3C#N)CC2)cc1", "note": "(stereo not given)", "Potency": "inconclusive: 9.2 µM [inhibitor, partial curve]"},
      {"smiles": "Cc1cc(C)c2nc(N3CCN(C)CC3)c(C#N)cc2c1", "Potency": "inactive"},
      {"smiles": "Fc1ccc(Nc2nnc(C(F)(F)F)s2)cc1Cl", "Potency": "inconclusive: 11.2 µM [inhibitor, partial curve, poor fit]"},
      {"smiles": "CN(C)C(=O)/C=C\\c1cn(-c2ccccc2)nc1-c1ccc2c(c1)OCCO2", "Potency": "inconclusive: 11.2 µM [inhibitor, partial curve, poor fit]"},
      {"smiles": "O=C(/C=C/c1ccc(Br)cc1)NC1CCCCCC1", "Potency": "inconclusive: 13 µM [inhibitor, partial curve]"},
      {"smiles": "CN(C)S(=O)(=O)c1cc(NC(=O)CSc2nn(-c3ccc(Cl)cc3)c(=S)s2)ccc1Cl", "Potency": "inconclusive: 22.4 µM [inhibitor, partial curve, poor fit]"},
      {"smiles": "Cc1cccc(N2CCN(C(=O)c3ccccc3OCc3c(C)noc3C)CC2)c1C", "Potency": "inconclusive: 15.8 µM [inhibitor, single point]"},
      {"smiles": "COCCCNc1nc2ccccc2nc1NS(=O)(=O)c1cccc(C)c1", "Potency": "inconclusive: 8.91 µM [inhibitor, partial curve, poor fit]"},
      {"smiles": "COC(=O)[C@@]1(Cc2ccc(OC)cc2)[C@@H]2C(=CC(=O)[C@H]2CC(=O)C(=O)N(C)C)CN1C(=O)c1ccccc1", "Potency": "inconclusive: 29.1 µM [inhibitor, single point]"},
      {"smiles": "O=C(Nc1ccc(S(=O)(=O)N2CCCC2)cc1)c1ccc(Cl)nc1", "Potency": "inconclusive: 25.1 µM [inhibitor, single point]"},
      {"smiles": "CC(C)N(C(=O)CSc1nnc(-c2cc3ccccc3cc2O)n1Cc1ccco1)C(C)C", "Potency": "inconclusive: 20.6 µM [inhibitor, single point]"},
      {"smiles": "O=C(N=Nc1c(O)[nH]c2ccccc12)c1cccc(S(=O)(=O)N2CCCCC2)c1", "Potency": "inactive"},
      {"smiles": "CCOc1ccccc1CNS(=O)(=O)c1ccc2[nH]c(=O)ccc2c1", "Potency": "inconclusive: 35.5 µM [activator, single point]"},
      {"smiles": "COc1ccc(-c2nnn(CC(=O)N(Cc3ccccc3Cl)C(C(=O)NCC3CCCO3)c3ccco3)n2)cc1OC", "note": "(stereo not given)", "Potency": "inconclusive: 20.6 µM [inhibitor, single point]"},
      {"smiles": "CCc1ccc(OCC(=O)OCC(=O)c2ccc3c(c2)NC(=O)CO3)cc1", "Potency": "inconclusive: 0.0058 µM [inhibitor, full curve, poor fit]"},
      {"smiles": "COc1cccc(C(=O)Nc2ccc(-c3cc(C(F)(F)F)nn3-c3ccccc3)cc2)c1", "Potency": "inconclusive: 17.8 µM [inhibitor, single point]"},
      {"smiles": "Cc1ccc(C)c(S(=O)(=O)N2CCN(C(=O)c3ccccc3Cc3ccccc3)CC2)c1", "Potency": "inconclusive: 14.1 µM [inhibitor, partial curve, poor fit]"},
      {"smiles": "CC(C)(C)c1oc(C(=O)O)cc1CN1CCOCC1", "Potency": "inconclusive: 1.26 µM [inhibitor, partial curve, poor fit]"},
      {"smiles": "CC(C)c1ccc(S(=O)(=O)c2nnn3c2nc(N2CCCCC2)c2sccc23)cc1", "Potency": "inactive"},
      {"smiles": "CCc1ccc(/C=C2\\SC(N3CCCC3)=NC2=O)cc1", "Potency": "inconclusive: 7.08 µM [inhibitor, partial curve, poor fit]"},
      {"smiles": "CCC(SC1=NCCS1)C(=O)Nc1ccc(S(N)(=O)=O)cc1", "note": "(stereo not given)", "Potency": "inactive"},
      {"smiles": "O=C(COC(=O)c1cccs1)NCCC1=CCCCC1", "Potency": "inactive"},
      {"smiles": "CC1CCCC=CC2CC(OC(=O)CN(C)C)CC2C(O)C=CC(=O)O1", "note": "(stereo not given)", "Potency": "active: 1.41 µM"},
      {"smiles": "COc1cc(C(O)P(=O)(OC(C)C)OC(C)C)cc(OC)c1OC", "note": "(stereo not given)", "Potency": "inconclusive: 35.5 µM [inhibitor, partial curve, poor fit]"},
      {"smiles": "Cc1ccc([C@H]2C[C@@H](O)[C@H](n3cc(-c4ccc(F)cc4)nn3)CN2Cc2cccs2)cc1", "Potency": "inconclusive: 9.95 µM [inhibitor, full curve, poor fit]"},
      {"smiles": "CCCCc1nnc(NC(=O)C=C(C)C)s1", "Potency": "inactive"},
      {"smiles": "O=Cc1c[nH]c2cccc(OCc3ccccc3)c12", "Potency": "inconclusive: 0.224 µM [inhibitor, full curve, poor fit]"}
    ]}
  ]
}
